Assay results published in patent US12557545B2, “Compound and organic light emitting device comprising the same” (LG Chem, Ltd., priority 2020, dated 2026).

Assay: Organic light emitting device evaluation (compound as dopant of light emitting layer)
Details: OLED; for Driving voltage (V @ 10 mA/cm^2): compound as dopant of light emitting layer (2:98 with Compound D); for EQE (% @ 10 mA/cm^2) / Lifetime (hr) (T90 @ 500 nit): compound as dopant of light emitting layer; for EQE (% @ 10 mA/cm^2): external quantum efficiency; for Lifetime (hr) (T90 @ 500 nit): time for luminance to fall to 90% of initial luminance (500 nit)

CC(C)(C)c1ccc(N(c2ccc3c4c5ccc6c(c5ccc4n(-c4ccccc4)c3c2)c2ccc(N(c3ccccc3)c3ccccc3)cc2n6-c2ccccc2)c2ccc3c4c5ccc6c(c5ccc4n(-c4ccccc4)c3c2)c2ccc(N(c3ccccc3)c3ccccc3)cc2n6-c2ccccc2)cc1 [Compound 11]
Driving voltage (V @ 10 mA/cm^2): 4.66 V | EQE (% @ 10 mA/cm^2): 8.79% | Lifetime (hr) (T90 @ 500 nit): 267 h

Cc1cccc(N(c2ccc3c4c5ccc6c(c5ccc4n(-c4ccccc4)c3c2)c2ccc(N(c3cccc(C)c3)c3cccc4c3oc3ccccc34)cc2n6-c2ccccc2)c2ccc3c4c5ccc6c(c5ccc4n(-c4ccccc4)c3c2)c2ccc(N(c3cccc(C)c3)c3cccc4c3oc3ccccc34)cc2n6-c2ccccc2)c1 [Compound 2]
Driving voltage (V @ 10 mA/cm^2): 4.61 V | EQE (% @ 10 mA/cm^2): 8.61% | Lifetime (hr) (T90 @ 500 nit): 239 h

CC(C)(C)c1ccc(N(c2ccc(C(C)(C)C)cc2)c2ccc3c4c5ccc6c(c5ccc4n(-c4ccccc4)c3c2)c2ccc(N(c3ccc(C(C)(C)C)cc3)c3ccc(C(C)(C)C)cc3)cc2n6-c2ccccc2)cc1 [Compound G, reference compound]
Driving voltage (V @ 10 mA/cm^2): 4.68 V | EQE (% @ 10 mA/cm^2): 7.11% | Lifetime (hr) (T90 @ 500 nit): 67 h

Cc1cccc(N(c2ccc3c4c5ccc6c(c5ccc4n(-c4ccccc4)c3c2)c2ccc(N(c3ccccc3)c3ccc4c5c7ccc8c(c7ccc5n(-c5ccccc5)c4c3)c3ccc(N(c4cccc(C)c4)c4cccc5c4oc4ccccc45)cc3n8-c3ccccc3)cc2n6-c2ccccc2)c2cccc3c2oc2ccccc23)c1 [Compound 4]
Driving voltage (V @ 10 mA/cm^2): 4.67 V | EQE (% @ 10 mA/cm^2): 8.67% | Lifetime (hr) (T90 @ 500 nit): 257 h

Cc1cccc(N(c2ccc3c4c5ccc6c(c5ccc4n(-c4ccccc4)c3c2)c2ccc(Oc3ccc4c5c7ccc8c(c7ccc5n(-c5ccccc5)c4c3)c3ccc(N(c4cccc(C)c4)c4cccc5c4oc4ccccc45)cc3n8-c3ccccc3)cc2n6-c2ccccc2)c2cccc3c2oc2ccccc23)c1 [Compound 17]
Driving voltage (V @ 10 mA/cm^2): 4.64 V | EQE (% @ 10 mA/cm^2): 8.77% | Lifetime (hr) (T90 @ 500 nit): 253 h

Cc1cccc(N(c2ccc3c(c2)c2c4ccc5c(c4ccc2n3-c2ccccc2)c2cc(N(c3ccc(C(C)(C)C)cc3)c3ccc4c(c3)c3c6ccc7c(c6ccc3n4-c3ccccc3)c3cc(N(c4cccc(C)c4)c4cccc6c4oc4ccccc46)ccc3n7-c3ccccc3)ccc2n5-c2ccccc2)c2cccc3c2oc2ccccc23)c1 [Compound 19]
Driving voltage (V @ 10 mA/cm^2): 4.67 V | EQE (% @ 10 mA/cm^2): 8.56% | Lifetime (hr) (T90 @ 500 nit): 265 h

Cc1cccc(N(c2ccc3c4c5ccc6c(c5ccc4n(-c4ccccc4)c3c2)c2ccc(N(c3ccc(C(C)(C)C)cc3)c3ccc4c5c7ccc8c(c7ccc5n(-c5ccccc5)c4c3)c3ccc(N(c4cccc(C)c4)c4cccc5c4oc4ccccc45)cc3n8-c3ccccc3)cc2n6-c2ccccc2)c2cccc3c2oc2ccccc23)c1 [Compound 1]
Driving voltage (V @ 10 mA/cm^2): 4.63 V | EQE (% @ 10 mA/cm^2): 8.89% | Lifetime (hr) (T90 @ 500 nit): 250 h

Cc1cccc(N(c2ccc3c4c5ccc6c(c5ccc4n(-c4ccccc4)c3c2)c2ccc(N(c3ccc(-c4cc5ccccc5o4)cc3)c3ccc4c5c7ccc8c(c7ccc5n(-c5ccccc5)c4c3)c3ccc(N(c4cccc(C)c4)c4cccc5c4oc4ccccc45)cc3n8-c3ccccc3)cc2n6-c2ccccc2)c2cccc3c2oc2ccccc23)c1 [Compound 5]
Driving voltage (V @ 10 mA/cm^2): 4.62 V | EQE (% @ 10 mA/cm^2): 8.74% | Lifetime (hr) (T90 @ 500 nit): 265 h

CC(C)(C)c1ccc(N(c2ccc(C(C)(C)C)cc2)c2ccc3c4c5ccc6c(c5ccc4n(-c4ccccc4)c3c2)c2ccc(N(c3ccc4c5c7ccc8c(c7ccc5n(-c5ccccc5)c4c3)c3ccc(N(c4ccc(C(C)(C)C)cc4)c4ccc(C(C)(C)C)cc4)cc3n8-c3ccccc3)c3cccc4c3oc3ccccc34)cc2n6-c2ccccc2)cc1 [Compound 7]
Driving voltage (V @ 10 mA/cm^2): 4.61 V | EQE (% @ 10 mA/cm^2): 8.77% | Lifetime (hr) (T90 @ 500 nit): 259 h

Cc1cccc(N(c2ccc3c4c5ccc6c(c5ccc4n(-c4ccccc4)c3c2)c2ccc(-c3ccc(-c4ccc5c7c8ccc9c(c8ccc7n(-c7ccccc7)c5c4)c4ccc(N(c5cccc(C)c5)c5cccc7c5oc5ccccc57)cc4n9-c4ccccc4)cc3)cc2n6-c2ccccc2)c2cccc3c2oc2ccccc23)c1 [Compound 14]
Driving voltage (V @ 10 mA/cm^2): 4.62 V | EQE (% @ 10 mA/cm^2): 8.72% | Lifetime (hr) (T90 @ 500 nit): 239 h

CC(C)(C)c1ccc(N(c2ccc(C(C)(C)C)cc2)c2ccc3c4c5ccc6c(c5ccc4n(-c4ccccc4)c3c2)c2ccc(N(c3ccc(C(C)(C)C)cc3)c3ccc4c5c7ccc8c(c7ccc5n(-c5ccccc5)c4c3)c3ccc(N(c4ccc(C(C)(C)C)cc4)c4ccc(C(C)(C)C)cc4)cc3n8-c3ccccc3)cc2n6-c2ccccc2)cc1 [Compound 6]
Driving voltage (V @ 10 mA/cm^2): 4.58 V | EQE (% @ 10 mA/cm^2): 8.78% | Lifetime (hr) (T90 @ 500 nit): 264 h

Cc1cccc(N(c2ccc3c4c5ccc6c(c5ccc4n(-c4ccccc4)c3c2)c2ccc(-c3ccc4c5c7ccc8c(c7ccc5n(-c5ccccc5)c4c3)c3ccc(N(c4cccc(C)c4)c4cccc5c4oc4ccccc45)cc3n8-c3ccccc3)cc2n6-c2ccccc2)c2cccc3c2oc2ccccc23)c1 [Compound 16]
Driving voltage (V @ 10 mA/cm^2): 4.59 V | EQE (% @ 10 mA/cm^2): 8.76% | Lifetime (hr) (T90 @ 500 nit): 267 h

CC(C)(C)c1ccc(N(c2ccc3c4c5ccc6c(c5ccc4n(-c4ccccc4)c3c2)c2ccc(N(c3ccccc3)c3ccc4cc(-c5cc7ccccc7o5)ccc4c3)cc2n6-c2ccccc2)c2ccc3c4c5ccc6c(c5ccc4n(-c4ccccc4)c3c2)c2ccc(N(c3ccccc3)c3ccc4cc(-c5cc7ccccc7o5)ccc4c3)cc2n6-c2ccccc2)cc1 [Compound 10]
Driving voltage (V @ 10 mA/cm^2): 4.61 V | EQE (% @ 10 mA/cm^2): 8.76% | Lifetime (hr) (T90 @ 500 nit): 271 h

Cc1cccc(N(c2ccc3c4c5ccc6c(c5ccc4n(-c4ccccc4)c3c2)c2ccc(N(c3ccc4c5c7ccc8c(c7ccc5n(-c5ccccc5)c4c3)c3ccc(N(c4cccc(C)c4)c4cccc5c4oc4ccccc45)cc3n8-c3ccccc3)c3cccc4c3oc3ccccc34)cc2n6-c2ccccc2)c2cccc3c2oc2ccccc23)c1 [Compound 3]
Driving voltage (V @ 10 mA/cm^2): 4.65 V | EQE (% @ 10 mA/cm^2): 8.78% | Lifetime (hr) (T90 @ 500 nit): 268 h

Cc1cccc(N(c2ccc3c4c5ccc6c(c5ccc4n(-c4ccccc4)c3c2)c2ccc(N(c3cccc(C)c3)c3cccc4c3oc3ccccc34)cc2n6-c2ccccc2)c2cccc3c2oc2ccccc23)c1 [Compound F, reference compound]
Driving voltage (V @ 10 mA/cm^2): 4.70 V | EQE (% @ 10 mA/cm^2): 6.87% | Lifetime (hr) (T90 @ 500 nit): 58 h
